Results of single-concentration screens

Source: ChEMBL document CHEMBL3988442, “University of Dundee, Small-Polar-MMV Screening Library” (2021).

A: 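Whole-cell growth test on Mycobacterium tuberculosis, read after 4 days in a medium based on cholesterol and the lipid DPPC; the read-out is not stated. Tested at 50 µM. Direction is inferred from retests: higher values go with more growth inhibition. About 69,000 compounds were tested under these conditions; 0.54% (about 370) showed 50% or more at least once.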
B: 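Whole-cell growth test on Mycobacterium tuberculosis, read after 3 days in glucose-containing 7H9 medium; the read-out is not stated. Concentration: 50 µM. Direction is inferred from retests: higher values go with more growth inhibition. Of about 69,000 compounds tested this way, about 760 (1.1%) reached 50% or more in at least one test.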

Each number is a percent effect as filed. How 0% and 100% were set is not recorded. Most values in the screen are low, and negative values occur. The compounds are a random part of those screened. Two or more numbers in one place are separate tests of the same structure; such repeats can differ widely.

SMILES	A	B
Cc1ccc(C(=O)N2CCC3(CC2)CC(NC(=O)C(C)C)CO3)cc1 (centres unmarked)	-11.59	-6.47
CC(NC(=O)C1CCCCC1)c1cc(O)nc(-c2cccnc2)n1 (centres unmarked)	1.176 & -11.7	-8.043
O=C(O)C(F)(F)F.c1cnc(N2CCOC3(COCCN(Cc4cc[nH]n4)C3)C2)nc1 (centres unmarked)	-5.868	-2.086 & -7.065
CSCCC(=O)N1CCN(CC(C)(C)O)CC1	18.56	19.15 & 1.698
Cc1noc2nc3c(c(C(=O)/N=c4\[nH]ncs4)c12)CCC3	-6.307	-3.321
O=C(CCn1cc(Cl)cn1)Nc1ccc2c(c1)OCCO2	-7.364	3.015
Cn1c(=O)[nH]c(=O)c2c1nc1n2CC(c2ccc(Br)cc2)O1 (centres unmarked)	10.31 & 6.341	-41.76
CSCc1noc(CNC(=O)C2CCN(C(C)C)CC2)n1	-3.431	-14.47 & 2.441
CCS(=O)(=O)N1CCc2ccc(NC(=O)Nc3ccc(F)cc3F)cc21	19.12	34.53
COc1ccc(CC2(C(=O)O)CCN(c3nc(C)ncc3C)CC2)cc1	-5.252	-22.19
CN(C(=O)NCCN1CCOCC1)C1CCN(c2ccccc2)C1=O (centres unmarked)	-7.197	-10.54
CC(C)c1nccn1C1CCCN(C(=O)c2cccc3[nH]ncc23)C1 (centres unmarked)	17.6	20.25
COc1ccnc(N2CCN(C(=O)CN3CCCC3=O)CC2)n1	8.012	17.69
CN1CCC(C(=O)N2CCCN(c3cccnn3)CC2)C1 (centres unmarked)	5.466	-0.9497 & 7.182
CCn1nccc1CN(C)C(=O)Cn1nc(C)c(C)c1C	-3.679 & 1.204	9.883
CC(C)CN1C(=O)C2(CCN(CC3CCOCC3)C2)c2ccccc21.O=C(O)C(F)(F)F (centres unmarked)	-8.159	21.25
O=C(O)c1ccnc(-c2ccnc(NCCc3nc4c(s3)CCC4)n2)c1	1.488	23.14
COc1ccc2c(c1)C1(CCN(Cc3ccncc3)CC1)N(C)CC2	16.45	32.79
O=C(CNC(=O)c1cnc2ccccc2c1O)NCCn1ccnc1	-4.903	-13.79
COc1cc(OC)c(CNC(=O)NCc2ccc(C#N)cc2)c(OC)c1	19.98	-13.22
[H][C@@]12CN(C(=O)c3cccnc3)C[C@]1([H])OCC(=O)N2Cc1cccnc1	-22.87	-6.114 & -43.21
CN1CCN(Cc2nnc(C3CCN(C(CO)CO)CC3)n2C)CC1	11.57	20.66
COCc1nn(C)c2c1CN(Cc1cnn(C)c1)CC2.O=C(O)C(F)(F)F	26.35	-5.042
O=C(O)C(F)(F)F.[H][C@@]12CCN(CC(C)C)[C@@]1([H])CCN2C(=O)N(C)C	13.68	-6.728 & 2.2
NC(=O)c1cnc(NC(=O)CCc2ccco2)c(Cl)c1	-25.85	-6.13 & -37.48
CC(=O)NCC(=O)N1CCc2nc(C)nc(C)c2CC1	-10.37	-20.15 & -2.065
CN(C)S(=O)(=O)c1ccc(CN2CCCC2c2ccc[nH]2)o1 (centres unmarked)	-20.58	-5.416
CCN(C)c1ncnc2c1CCN(C(=O)N(C)C)CC2.O=C(O)C(F)(F)F	-12.25	-7.277 & 1.908
COc1ccc2[nH]c3c(c2c1)CN(c1cc(NCCO)nc(N)n1)CC3	27.86	26.66 & 27.1
Cc1ccc(-c2nc(CCNCc3ccncc3)co2)cc1	20.03 & 32.69	38.61
O=C(c1ccc2c(c1)COC2)N1CCCC(n2cncn2)C1 (centres unmarked)	-12.19	6.479
COc1ccc(CNC(C)c2cccc(Cl)c2)c(OC)c1OC (centres unmarked)	6.222	21.36
COCC(=O)N1CCC(Cc2nccnc2-c2c(C)n[nH]c2C)C1 (centres unmarked)	-17.58	-19.12
CC(CN1CCCC1=O)NC(=O)c1cc(-c2cccc(Cl)c2)no1 (centres unmarked)	1.526	-1.392
COc1cc(O)cc2c1C(=O)CC(c1ccc(O)cc1)O2 (centres unmarked)	-4.497	-0.8834 & 1.477
Cc1ccc(NC(=O)CN(C)C(=O)c2ccc(-n3cccc3)nc2)nc1	12.01	18.41
CCc1ccc2c(c1)C(CCNC(=O)c1sccc1C)C(=O)N2 (centres unmarked)	4.441	15.89
CC(C)CN1CC(c2nc(-c3cccc(F)c3)c[nH]2)CC1=O (centres unmarked)	4.558	37.3
O=c1n(CCSCc2ccccc2F)nc2ccccn12	-10.32	34.94
Cc1nc(CN(C)C(=O)c2cc(C)sc2NC(=O)C(C)(C)C)no1	-0.2032	4.563

Some entries from above, unchanged:

SMILES	A	B
O=C(O)c1ccnc(-c2ccnc(NCCc3nc4c(s3)CCC4)n2)c1	1.488	23.14
COc1cc(O)cc2c1C(=O)CC(c1ccc(O)cc1)O2 (centres unmarked)	-4.497	-0.8834 & 1.477
COc1ccc2[nH]c3c(c2c1)CN(c1cc(NCCO)nc(N)n1)CC3	27.86	26.66 & 27.1